Measurements from the supplement of paper PMC4604168 (melanoma cell lines).
The other results are listed elsewhere or left out. Repeats are few or missing, and single values can be far off.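 Imaging used 1,536-well plates; nuclei positive for cleaved PARP by antibody were divided by total DNA-stained nuclei to yield the apoptosis fraction. Doses for screening kept most cells viable, and cell lines differ markedly in resting and induced cleaved-PARP levels.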

These compounds were tested on IPC-298 (assay: cleaved PARP positive nuclei fraction relative to DMSO control; melanoma cells; higher = more apoptosis). Settings: library dose: low library concentration; 72 h.

Row | SMILES | cleaved PARP positive nuclei fraction
1 | Cn1cnc2c(F)c(Nc3ccc(Br)cc3Cl)c(C(=O)NOCCO)cc21 [selumetinib] + O=C(CCCCCCC(=O)Nc1ccccc1)NO [vorinostat] (first compound 0.015 µM, partner dose 0.08 µM) | 115%
2 | COc1ccc(C2=N[C@@H](c3ccc(Cl)cc3)[C@@H](c3ccc(Cl)cc3)N2C(=O)N2CCNC(=O)C2)c(OC(C)C)c1 [Nutlin-3] + Cc1ccc(NC(=O)c2cccc(N(C)C)c2)cc1NC(=O)c1ccc(O)cc1 [ZM336372] (first compound 0.1 µM, partner dose 2 µM) | 102%
3 | CS(=O)(=O)c1ccc(C(=O)Nc2ccc(Cl)c(-c3ccccn3)c2)c(Cl)c1 [vismodegib] + O=C(O)c1ccc(-c2c[nH]c3ncc(-c4ccccc4)cc23)cc1C1CCCC1 [GSK650394] (first compound 1 µM, partner dose 0.16 µM) | 23%
4 | C[C@]1(O)C[C@@H](c2nc(-c3ccc4ccc(-c5ccccc5)nc4c3)c3c(N)nccn32)C1 + CC(C)(C)c1cnc(CSc2cnc(NC(=O)C3CCNCC3)s2)o1 [SNS-032] (first compound 0.4 µM, partner dose 0.01 µM) | 93%
5 | CC(=O)O[C@@]12CO[C@@H]1C[C@H](O)[C@@]1(C)C(=O)[C@H](O)C3=C(C)[C@@H](OC(=O)[C@H](O)[C@@H](NC(=O)OC(C)(C)C)c4ccccc4)C[C@@](O)([C@@H](OC(=O)c4ccccc4)[C@H]21)C3(C)C [Docetaxel] + COc1cc(Nc2ncc(F)c(Nc3ccc4c(n3)NC(=O)C(C)(C)O4)n2)cc(OC)c1OC [Tamatinib] (first compound 0.0001 µM, partner dose 0.4 µM) | 283%
6 | CS(=O)(=O)c1ccc(C(=O)Nc2ccc(Cl)c(-c3ccccn3)c2)c(Cl)c1 [vismodegib] + CO[C@@H]1[C@H](N(C)C(=O)c2ccccc2)C[C@H]2O[C@]1(C)n1c3ccccc3c3c4c(c5c6ccccc6n2c5c31)C(=O)NC4 [Midostaurin] (first compound 1 µM, partner dose 0.08 µM) | 87.2%
7 | CC(=O)O[C@@]12CO[C@@H]1C[C@H](O)[C@@]1(C)C(=O)[C@H](O)C3=C(C)[C@@H](OC(=O)[C@H](O)[C@@H](NC(=O)OC(C)(C)C)c4ccccc4)C[C@@](O)([C@@H](OC(=O)c4ccccc4)[C@H]21)C3(C)C [Docetaxel] + C[C@@H]1CCN(C(=O)CC#N)C[C@@H]1N(C)c1ncnc2[nH]ccc12 [CP690550] (first compound 0.0001 µM, partner dose 1 µM) | 198%
8 | Cn1cnc2c(F)c(Nc3ccc(Br)cc3Cl)c(C(=O)NOCCO)cc21 [selumetinib] + O=C(Nc1cccc(Cl)c1)Nc1ncc(CCNc2ncnc3ccsc23)s1 [SNS314] (first compound 0.015 µM, partner dose 0.0008 µM) | 160%
9 | NC(=O)c1ccc(N(C(N)=O)c2c(F)cccc2F)nc1-c1ccc(F)cc1F + OCCn1cc(-c2cnc3nnn(Cc4ccc5ncccc5c4)c3n2)cn1 [PF04217903] (first compound 0.4 µM, partner dose 1 µM) | 87.2%
10 | CC1(C)CCC(c2ccc(Cl)cc2)=C(CN2CCN(c3ccc(C(=O)NS(=O)(=O)c4ccc(N[C@H](CCN5CCOCC5)CSc5ccccc5)c(S(=O)(=O)C(F)(F)F)c4)cc3)CC2)C1 + CO[C@@H]1[C@H](N(C)C(=O)c2ccccc2)C[C@H]2O[C@]1(C)n1c3ccccc3c3c4c(c5c6ccccc6n2c5c31)C(=O)NC4 [Midostaurin] (first compound 0.4 µM, partner dose 0.08 µM) | 128%

Part of the list above, tab-delimited.
Row	SMILES	cleaved PARP positive nuclei fraction
8	Cn1cnc2c(F)c(Nc3ccc(Br)cc3Cl)c(C(=O)NOCCO)cc21 [selumetinib] + O=C(Nc1cccc(Cl)c1)Nc1ncc(CCNc2ncnc3ccsc23)s1 [SNS314] (first compound 0.015 µM, partner dose 0.0008 µM)	160%
9	NC(=O)c1ccc(N(C(N)=O)c2c(F)cccc2F)nc1-c1ccc(F)cc1F + OCCn1cc(-c2cnc3nnn(Cc4ccc5ncccc5c4)c3n2)cn1 [PF04217903] (first compound 0.4 µM, partner dose 1 µM)	87.2%
